Results are given in words; binding and its absence hold for the method and conditions named. Binding seen in cells or lysates may run through a third protein. Some results given as binding are weak or reduced against the parent protein; the word gives no strength.
Columns and labels:
[1] = molecular target: endogenous TDP-43 (human (endogenous in HEK293)) (UniProt Q13148); assay: co-IP; immunoprecipitation from HEK293 cell lysates with a specific anti-TDP-43 antibody, non-specific IgG as control; Western blot with anti-LonP1
[2] = molecular target: Myc-tagged A315T-mutant TDP-43 (human) (UniProt Q13148); assay: co-IP; immunoprecipitation with a monoclonal anti-Myc antibody from lysates of HEK293 stable inducible cells (vector control, Myc-tagged Wt or A315T TDP-43), 36 hr after Tet-induction; Western blot with anti-LonP1
[3] = molecular target: Myc-tagged wild type TDP-43 (human) (UniProt Q13148); assay: as above

Measured: binding

B1: LonP1 (endogenous) (enzyme, UniProt P36776 68-959)
chain: FWEASSRGGGAFSGGEDASEGGAEEGAGGAGGSAGAGEGPVITALTPMTIPDVFPHLPLIAITRNPVFPRFIKIIEVKNKKLVELLRRKVRLAQPYVGVFLKRDDSNESDVVESLDEIYHTGTFAQIHEMQDLGDKLRMIVMGHRRVHISRQLEVEPEEPEAENKHKPRRKSKRGKKEAEDELSARHPAELAMEPTPELPAEVLMVEVENVVHEDFQVTEEVKALTAEIVKTIRDIIALNPLYRESVLQMMQAGQRVVDNPIYLSDMGAALTGAESHELQDVLEETNIPKRLYKALSLLKKEFELSKLQQRLGREVEEKIKQTHRKYLLQEQLKIIKKELGLEKDDKDAIEEKFRERLKELVVPKHVMDVVDEELSKLGLLDNHSSEFNVTRNYLDWLTSIPWGKYSNENLDLARAQAVLEEDHYGMEDVKKRILEFIAVSQLRGSTQGKILCFYGPPGVGKTSIARSIARALNREYFRFSVGGMTDVAEIKGHRRTYVGAMPGKIIQCLKKTKTENPLILIDEVDKIGRGYQGDPSSALLELLDPEQNANFLDHYLDVPVDLSKVLFICTANVTDTIPEPLRDRMEMINVSGYVAQEKLAIAERYLVPQARALCGLDESKAKLSSDVLTLLIKQYCRESGVRNLQKQVEKVLRKSAYKIVSGEAESVEVTPENLQDFVGKPVFTVERMYDVTPPGVVMGLAWTAMGGSTLFVETSLRRPQDKDAKGDKDGSLEVTGQLGEVMKESARIAYTFARAFLMQHAPANDYLVTSHIHLHVPEGATPKDGPSAGCTIVTALLSLAMGRPVRQNLAMTGEVSLTGKILPVGGIKEKTIAAKRAGVTCIVLPAENKKDFYDLAAFITEGLEVHFVEHYREIFDIAFPDEQAEALAVER
binds: all assays above

— paper PMC6524796
